From PMC8384837 come the findings set out here.

Positions count from the first letter of the chain named. Some of the results follow.

Common to all, as to settings: yeast three-hybrid, YBZ-1, SC-Leu-His + 0.5 mM 3-AT, 4 days
In assay [1] the target is T1, PUM1 PUF domain R3-EWR C935E + R936W + Q939R (Homo sapiens) (UniProt Q14671).
T1 sequence: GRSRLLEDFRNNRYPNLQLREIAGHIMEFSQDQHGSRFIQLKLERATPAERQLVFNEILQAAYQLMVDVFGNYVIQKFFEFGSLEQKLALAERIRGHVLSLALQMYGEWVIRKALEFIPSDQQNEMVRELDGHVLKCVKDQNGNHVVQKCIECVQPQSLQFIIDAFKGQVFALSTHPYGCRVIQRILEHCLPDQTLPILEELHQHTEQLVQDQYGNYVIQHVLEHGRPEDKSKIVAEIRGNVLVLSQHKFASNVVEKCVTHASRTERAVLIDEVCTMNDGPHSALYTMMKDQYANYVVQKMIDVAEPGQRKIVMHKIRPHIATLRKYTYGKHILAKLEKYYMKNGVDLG

Assay [2] concerns the target T2, PUM1 PUF domain R3-GRR C935G + Q939R (Homo sapiens) (UniProt Q14671).
T2 sequence: T1 sequence with E108G, W109R

The target of assay [3] is T3, PUM1 PUF domain R3-KPG C935K + R936P + Q939G (Homo sapiens) (UniProt Q14671).
T3 sequence: T1 sequence with E108K, W109P, R112G

In assay [4] the target is T4, PUM1 PUF domain R3-LFT C935L + R936F + Q939T (Homo sapiens) (UniProt Q14671).
T4 sequence: T1 sequence with E108L, W109F, R112T

Assay [5] concerns the target T5, PUM1 PUF domain R3-LRV C935L + Q939V (Homo sapiens) (UniProt Q14671).
T5 sequence: T1 sequence with E108L, W109R, R112V

Assay [6] addresses T6, PUM1 PUF domain R3-LSK C935L + R936S + Q939K (Homo sapiens) (UniProt Q14671).
T6 sequence: T1 sequence with E108L, W109S, R112K

Assay [7] concerns the target T7, PUM1 PUF domain R3-MRW C935M + Q939W (Homo sapiens) (UniProt Q14671).
T7 sequence: T1 sequence with E108M, W109R, R112W

For assay [8], the target named is T8, PUM1 PUF domain R3-QRR C935Q + Q939R (Homo sapiens) (UniProt Q14671).
T8 sequence: T1 sequence with E108Q, W109R

For assay [9], the target named is T9, PUM1 PUF domain R3-RAQ C935R + R936A (Homo sapiens) (UniProt Q14671).
T9 sequence: T1 sequence with E108R, W109A, R112Q

The target in assay [10] is T10, PUM1 PUF domain R3-RCA C935R + R936C + Q939A (Homo sapiens) (UniProt Q14671).
T10 sequence: T1 sequence with E108R, W109C, R112A

Assay [11] deals with T11, PUM1 PUF domain R3-RQV C935R + R936Q + Q939V (Homo sapiens) (UniProt Q14671).
T11 sequence: T1 sequence with E108R, W109Q, R112V

In assay [12] the target is T12, PUM1 PUF domain R3-SCR C935S + R936C + Q939R (Homo sapiens) (UniProt Q14671).
T12 sequence: T1 sequence with E108S, W109C

Assay [13] concerns the target T13, PUM1 PUF domain R3-SND C935S + R936N + Q939D (Homo sapiens) (UniProt Q14671).
T13 sequence: T1 sequence with E108S, W109N, R112D

The target in assay [14] is T14, PUM1 PUF domain R3-SNR C935S + R936N + Q939R (Homo sapiens) (UniProt Q14671).
T14 sequence: T1 sequence with E108S, W109N

In assay [15] the target is T15, PUM1 PUF domain R3-VCK C935V + R936C + Q939K (Homo sapiens) (UniProt Q14671).
T15 sequence: T1 sequence with E108V, W109C, R112K

Assay [16] deals with T16, PUM1 PUF domain R3-WAR C935W + R936A + Q939R (Homo sapiens) (UniProt Q14671).
T16 sequence: T1 sequence with E108W, W109A

Assay [17] addresses T17, PUM1 PUF domain R3-WCR C935W + R936C + Q939R (Homo sapiens) (UniProt Q14671).
T17 sequence: T1 sequence with E108W, W109C

The target in assay [18] is T18, PUM1 PUF domain R3-WWG C935W + R936W + Q939G (Homo sapiens) (UniProt Q14671).
T18 sequence: T1 sequence with E108W, R112G

The target of assay [19] is T19, PUM1 PUF domain R3-WWV C935W + R936W + Q939V (Homo sapiens) (UniProt Q14671).
T19 sequence: T1 sequence with E108W, R112V

For assay [20], the target named is T20, PUM1 PUF domain R3-YRC C935Y + Q939C (Homo sapiens) (UniProt Q14671).
T20 sequence: T1 sequence with E108Y, W109R, R112C

On to “GGCUAGAACUAGUGGAUCCCCCGGCGCCCGGCGGCUCGAGCCCGGGUAAGUGUAAAUAGUCUGCAUGCCGCCGGGCGCCAUGCCUGCAGGUCGACUCUAGAAAACAUG”, for which the binding signal (log2 enrichment (interaction score)) in assay [1] is 0.32; in [2], -1.72; in assay [3] it was -0.64; in [4], -0.04; in [5] it was -0.45; in [6], -0.34. The binding signal (log2 enrichment (interaction score)) in assay [7] was 0.23; in [8], -0.02; in assay [9], -0.41; in [10], 0.36; in [11], -0.68; in assay [12], -0.51. Besides, the binding signal (log2 enrichment (interaction score)) was -0.73 in [13]; -0.14 in [14]; -0.45 in [15]; -0.29 in assay [16]; -0.73 in [17]; 0.11 in assay [18]. The binding signal (log2 enrichment (interaction score)) was -0.51 in assay [19] and -0.21 in assay [20].
